Whole data set: some 33,000 sequences, median “E-score (-0.5 to 0.5)” near -0.0059, cut for the highest 2% near 0.26. Some of the results follow.
Target: T1, Cin5 (UniProt P40917)
T1 sequence: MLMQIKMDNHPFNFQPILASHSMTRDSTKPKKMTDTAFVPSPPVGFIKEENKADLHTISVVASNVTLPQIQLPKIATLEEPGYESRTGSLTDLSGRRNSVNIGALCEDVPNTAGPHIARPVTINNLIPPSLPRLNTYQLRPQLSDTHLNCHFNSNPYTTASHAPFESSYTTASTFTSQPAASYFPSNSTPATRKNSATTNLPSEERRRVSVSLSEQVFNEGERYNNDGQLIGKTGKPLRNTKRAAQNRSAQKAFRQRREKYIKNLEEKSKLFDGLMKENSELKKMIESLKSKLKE
Experiment: PBM E-score (8-mer binding enrichment) (E-score (-0.5 to 0.5)); higher = stronger / more preferred TF binding
Conditions: protein concentration: 100 nM; construct: GST-full length
Procedure, shortened: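 The E-score, a modified Wilcoxon-Mann-Whitney statistic, was computed by the Universal PBM Analysis Suite for every ungapped eight-base word pooled with its reverse complement. Scans behind it were normalised with masliner after bound GST-tagged yeast transcription factors were detected with fluorescent anti-GST. The proteins, at about 100-200 nM, had been applied to universal all-10-mer Agilent arrays made double-stranded by primer extension.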

Row | Sequence | PBM E-score
1 | ATGGCTAA | -0.00592
2 | ATAGCTAA | 0.0506
3 | AAACGCGG | 0.122
4 | CGTTAGTC | -0.00681
5 | ATCTCCCG | -0.101
6 | ACTAGGAA | -0.0988
7 | ATCGAATC | 0.0936
8 | GCAAATGC | -0.074
9 | CCGCCGAC | -0.119
10 | AATTAGGT | 0.0972
11 | CGGACGTA | -0.0782
12 | AGCGACCA | 0.0223
13 | CTCTGAAA | 0.0783
14 | ATTAAGCC | 0.0793
15 | CATCTATA | 0.184
16 | CCGCCCGG | -0.0176
17 | GAGCAGTA | -0.00544
18 | GCCTCAGC | -0.143
19 | AATTATGC | 0.171
20 | CTCGTGTC | -0.147
21 | CTACTTTA | 0.0575
22 | TGAGTCAA | -0.0173
23 | AGCCAGCA | -0.141
24 | AACGGTAC | 0.199
25 | AATGATCA | 0.05

Quoted at random: 2 records from the list.
Row | Sequence | PBM E-score
23 | AGCCAGCA | -0.141
1 | ATGGCTAA | -0.00592

Remaining list, next part.

Row | Sequence | PBM E-score
26 | GCATTCGC | -0.157
27 | ATTGGCTC | 0.0785
28 | CGAAGGTC | -0.192
29 | ATCGGGGG | -0.314
30 | ACGCCCTC | -0.0682
31 | AGCGAAAT | 0.0278
32 | GCGAAAGA | 0.055
33 | GAATACAA | 0.205
34 | GACAAAAA | 0.0976
35 | CGTTGCGC | -0.0509
36 | CATTAACC | 0.123
37 | ATCAGTCG | 0.142
38 | ATGAATTA | 0.097
39 | CCTACGTC | -0.116
40 | ACTGTTCT | 0.181
41 | AAAACCAA | -0.0754
42 | ATTCACTC | 0.0516
43 | CATTCCCG | 0.128
44 | GGGGAGTA | -0.0349
45 | ATACTTGG | -0.0222
46 | AATGGGTG | 0.182
47 | ATCTATGG | -0.121
48 | ACGAGACA | 0.00599
49 | GTGTCAAA | -0.00832
50 | AAAGGCCG | -0.193

Numbers 42 through 44, reprinted for reference:
Row | Sequence | PBM E-score
42 | ATTCACTC | 0.0516
43 | CATTCCCG | 0.128
44 | GGGGAGTA | -0.0349

The list goes on.

Row | Sequence | PBM E-score
51 | CCATTGGG | -0.215
52 | GGCAGTAC | -0.0716
53 | ATTTCAAG | 0.0882
54 | GCCGGTAC | -0.179
55 | AAGAGAGA | -0.113
56 | GCGCATCC | -0.0649
57 | GTATACAA | 0.166
58 | AAAAGCTT | -0.127
59 | CAGTACAA | 0.0288
60 | ACATGTCC | 0.0675
61 | AATCTCAC | -0.00066
62 | GTACGGGA | -0.145
63 | CAGTGATA | 0.0486
64 | AATTTAAG | 0.155
65 | AATTCCAG | 0.234
66 | CATCCTCA | -0.0377
67 | AATTGTAG | 0.109
68 | CCGCGAAG | -0.0304
69 | AAAAGCGG | -0.114
70 | CGACGCCA | -0.0698
71 | AGTGTCCA | -0.00164
72 | AAGACAGG | -0.0302
73 | ACCTCGAT | 0.0677
74 | GAGAGTCC | -0.18
75 | CTTTATGA | -0.0656

Row | Sequence | PBM E-score
76 | AAATAAAG | 0.0387
77 | ATCACGAA | 0.114
78 | TCACTAAA | 0.13
79 | AGCACAGG | 0.0522
80 | CGACTAAA | -0.0518
81 | AGAACTGC | -0.168
82 | AGATCACG | 0.0854
83 | GACAGTTA | 0.0897
84 | TCCGCGAA | 0.0615
85 | CCGGTCCA | -0.314
86 | AGCTTAGG | 0.109
87 | CAGGTCCG | -0.132
88 | ACCTAGAC | -0.126
89 | AGTAGGTC | -0.131
90 | CCAGGTGC | -0.145
91 | AGGTCCCA | -0.0786
92 | AGTAGGAA | -0.115
93 | CGGGGGAA | -0.147
94 | CTCACCTA | -0.0108
95 | CACGTTTA | -0.107
96 | GGTGTGCA | -0.238
97 | TACTCCTA | 0.066
98 | GTGAACCA | 0.0277
99 | CTAGTTCC | -0.053
100 | CTCCAAAC | 0.0165

Row | Sequence | PBM E-score
101 | GTCATAGA | 0.0655
102 | CCGTGAAG | -0.21
103 | ACGTACAT | 0.175
104 | ATTGGTGG | 0.113
105 | CATCGGTA | -0.0459
106 | CTTAATCC | -0.0181
107 | GCAGTCCC | -0.317
108 | GGGGTGAA | -0.0833
109 | CTTTCTGC | 0.107
110 | GTTCTTAA | -0.00461
111 | AACTATAG | 0.051
112 | GGTGCACC | -0.128
113 | CAGAATCA | 0.0356
114 | CTCGACCA | -0.282
115 | CCATGCGC | 0.0317
116 | AATTGGAC | 0.167
117 | AGGACCCA | -0.183
118 | ACGCAGTC | -0.23
119 | GGCTACGA | -0.115
120 | CATCATCC | 0.178
121 | AATGTACA | 0.114
122 | CCTAGTAA | -0.0612
123 | ATTGCTCG | 0.0561
124 | CTTTCAAA | 0.162
125 | CCGTCTAC | -0.0256

Copied from the list:
ACGCAGTC | PBM E-score: -0.23
GGCTACGA | PBM E-score: -0.115

The list continues.

Row | Sequence | PBM E-score
126 | CACGCCTC | -0.177
127 | CCGAGGCA | -0.143
128 | GCACTTAA | 0.0642
129 | GCCGAATA | 0.0518
130 | AAACGGAT | 0.247
131 | ACCTGACT | 0.145
132 | AGAGTCGG | -0.0293
133 | TCTACGCA | 0.0187
134 | GAACTCGA | 0.0923
135 | CACCAATG | 0.179
136 | AGAAAAGA | -0.106
137 | CGAAGTTC | -0.0408
138 | AACCCGTG | -0.338
139 | AACTTGCC | 0.0393
140 | AAAAATCT | 0.0604
141 | TCTAAGCA | 0.132
142 | AATAGTGG | 0.0995
143 | GGATGTGA | 0.00707
144 | GCAACCGA | -0.0746
145 | CGGTCGGC | -0.247
146 | AGAGTTAA | 0.0368
147 | AACGAGGA | 0.0327
148 | GAACCCGC | -0.194
149 | GGAATTCC | -0.0348
150 | AAGTCACG | -0.00527

Row | Sequence | PBM E-score
151 | ATAATCCC | 0.166
152 | ATAACCAA | 0.258
153 | CAAAATCC | 0.127
154 | AGCCACAA | 0.0169
155 | CAGTTTAC | -0.0464
156 | AGTTTAGC | -0.0182
157 | AATGCACG | -0.0173
158 | GACCTCGC | -0.115
159 | GAAGACAC | -0.0185
160 | CCGATGGA | -0.0955
161 | CGTTTAAA | -0.0294
162 | ATGCGTTA | 0.169
163 | ATACGGAG | 0.0433
164 | ATTTCGAG | 0.0981
165 | CGTAGTAG | -0.0942
166 | AATAGCAA | 0.168
167 | CGTAGCGC | -0.253
168 | GAATCGCA | -0.0879
169 | GCTTCTTA | -0.0842
170 | ACAAGACA | 0.132
171 | ACCGATAC | 0.00438
172 | AGGGGCAG | -0.162
173 | AAAAGCAA | 0.143
174 | ATCCCGAC | 0.0664
175 | ATTGGTAG | 0.0257

Row | Sequence | PBM E-score
176 | GCCGTAGA | -0.0858
177 | GGTAAGTA | -0.00023
178 | CCTGACTA | 0.202
179 | TGAAGCAA | -0.109
180 | ATAATCTC | 0.239
181 | GTTTGTCA | 0.235
182 | ATGCCTAC | -0.0991
183 | AGAATTAG | 0.0689
184 | ATCGTTAG | 0.0867
185 | AATCGAGA | 0.171
186 | AACCTGCT | 0.0853
187 | CCGCGCTC | -0.0111
188 | CATTTACG | 0.0496
189 | GGTCTTTA | 0.0127
190 | ATGCGAAC | 0.0685
191 | GACATTGC | -0.11
192 | ATATTTAA | 0.223
193 | CGGTACTC | -0.161
194 | ATGGTCCC | -0.053
195 | TCACCCGA | 0.0795
196 | AGAGCAAT | -0.162
197 | AAGAGCGG | 0.0338
198 | CACCTTTC | -0.0182
199 | TCAGACGA | -0.022
200 | AGCTGATA | 0.0998

Row | Sequence | PBM E-score
201 | AAAAAGAC | 0.0488
202 | CTAAGTAC | -0.0187
203 | AAGAGGAC | -0.151
204 | CACATCAC | 0.0569
205 | GCATAAAC | 0.115
206 | CGGGCCAA | -0.23
207 | CACTAAGA | 0.152
208 | ATAGCTCA | -0.0109
209 | AACATAGT | 0.112
210 | ATCCTGTC | -0.0814
211 | ACGTAGCT | -0.0544
212 | GCAGCGCC | -0.18
213 | CGGTGTCC | -0.213
214 | ACTTTTTA | -0.00388
215 | AAGATAAC | 0.14
216 | TGCCCTAA | -0.0446
217 | ATCGTAAA | 0.0952
218 | GGCGTGTA | -0.113
219 | CTGGGTGA | -0.107
